From PubChem BioAssay AID292 (DTP/NCI, 2004)
The list shows only some results of the screen, not a fair sample: it is rich in T/C values a quarter to a half above the control, in often repeated tests (any T/C) and in doses without a T/C. Other doses and runs of a compound stand elsewhere. T/C gives the treated animals as a percentage of the vehicle group. Some entries give survivors of the animals treated and no T/C: the source holds a T/C of zero for them, seemingly a mark for toxic or unscored doses. Some doses without a T/C left all or most animals alive at the check, yet need not have been tolerated: survival well below the control is almost never listed, so the zero probably covers shortened survival too. Counts of survivors are from the toxicity check (mostly the fifth day) where no day follows; animals may have died later. Schedule codes are those of the source, taken here to give the interval after Q, in days (D) or hours (H), and the number of doses after X. For survival time, the PubChem record calls one and a half times the control and up active, and a quarter to a half above the control has no call in these data; cut-offs in other NCI protocols can differ. Some doses were run more than once; their values stand side by side, smallest first. Some T/C values carry the count of animals alive at the toxicity check (mostly the fifth day); without a count, all were alive then.

System: B6C3F1 mice, ip Sarcoma M5076, median survival T/C
Test: NCI In Vivo Anticancer Drug Screen. Data for tumor model Sarcoma M5076 (intraperitoneal) in B6C3F1 mice
Conditions: T/C endpoint: median survival time, higher T/C = longer survival
How it was run: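 Transplantable tumour in mice; compound-treated vs vehicle-treated groups. Read-out: survival. Value = treated/control ratio.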

[1] = dose: 50.0 mg/kg/injection, schedule: Q04DX004 (ip), vehicle: Klucel (hydroxypropylcellulose) (HPC)
[2] = dose: 100.0 mg/kg/injection, schedule: Q04DX004 (ip), vehicle: Klucel (hydroxypropylcellulose) (HPC)
[3] = dose: 400.0 mg/kg/injection, schedule: Q04DX004 (ip), vehicle: saline with Tween-80
[4] = dose: 800.0 mg/kg/injection, schedule: Q04DX004 (ip), vehicle: saline with Tween-80
[5] = dose: 400.0 mg/kg/injection, schedule: Q04DX004 (ip), vehicle: Klucel (hydroxypropylcellulose) (HPC)
[6] = dose: 200.0 mg/kg/injection, schedule: Q04DX004 (ip), vehicle: saline with Tween-80

CC(C)(C)c1cc2c3c(c1)Oc1cc(C(C)(C)C)cc4c1C3(O)c1c(cc(C(C)(C)C)cc1O4)O2
T/C (dose: 15.0 mg/kg/injection, schedule: Q04DX004 (ip), vehicle: Klucel (hydroxypropylcellulose) (HPC)): 127 % of control
T/C (dose: 25.0 mg/kg/injection, schedule: Q04DX004 (ip), vehicle: Klucel (hydroxypropylcellulose) (HPC)): 127 and 127 % of control [7 of 10 alive on day 14]
survivor count (dose: 41.66 mg/kg/injection, schedule: Q04DX004 (ip), vehicle: Klucel (hydroxypropylcellulose) (HPC)): 7 of 10 on day 14
survivor count [1]: 1 of 10 on day 14
survivor count (dose: 69.44 mg/kg/injection, schedule: Q04DX004 (ip), vehicle: Klucel (hydroxypropylcellulose) (HPC)): 1 of 10 on day 14
survivor count [2]: 0 of 10 on day 14

C/C(=N\Nc1cc(C)nc2ccc(C)cc12)c1cn(C)n(-c2ccccc2)c1=O
survivor count (dose: 62.5 mg/kg/injection, schedule: Q04DX004 (ip), vehicle: Klucel (hydroxypropylcellulose) (HPC)): 10 of 10 on day 14
survivor count (dose: 125.0 mg/kg/injection, schedule: Q04DX004 (ip), vehicle: Klucel (hydroxypropylcellulose) (HPC)): 10 of 10 on day 14
survivor count (dose: 250.0 mg/kg/injection, schedule: Q04DX004 (ip), vehicle: Klucel (hydroxypropylcellulose) (HPC)): 10 of 10 on day 14
survivor count (dose: 500.0 mg/kg/injection, schedule: Q04DX004 (ip), vehicle: Klucel (hydroxypropylcellulose) (HPC)): 6 of 10 on day 14

CN1CCN(c2ccc3nc(-c4ccc5nc(-c6ccc(O)cc6)[nH]c5c4)[nH]c3c2)CC1
survivor count (dose: 450.0 mg/kg/injection, schedule: Q04DX004 (ip), vehicle: saline): 2 of 10 on day 14

Nc1ccn([C@@H]2C=C(CO)[C@@H](O)[C@H]2O)c(=O)n1
survivor count (dose: 1.0 mg/kg/injection, schedule: Q01DX013 (ip), vehicle: saline): 9 of 10 on day 14
survivor count (dose: 2.0 mg/kg/injection, schedule: Q01DX013 (ip), vehicle: saline): 0 of 10 on day 14

CC(C)(C)c1noc2c1C(=O)c1ccccc1-2
survivor count [3]: 9 of 10 on day 14

O=C(O)CCCCCCCC(=O)O
survivor count (dose: 600.0 mg/kg/injection, schedule: Q04DX004 (ip), vehicle: distilled water + Tween-80): 5 of 10 on day 14
survivor count (dose: 1200.0 mg/kg/injection, schedule: Q04DX004 (ip), vehicle: distilled water + Tween-80): 0 of 10 on day 14

CN(C)C(=O)SC1=C(c2c(Cl)cccc2Cl)C(=O)c2ccccc21
survivor count (dose: 600.0 mg/kg/injection, schedule: Q04DX004 (ip), vehicle: Klucel (hydroxypropylcellulose) (HPC)): 10 of 10 on day 14

Cc1nc2cc[nH]n2c(=O)c1CCc1ccccc1
survivor count [3]: 10 of 10 on day 14
survivor count [4]: 10 of 10 on day 14

COC1CC2C=C(C)/C=C/C=C/C(=O)NC(c3ccccc3)C/C=C/CCC(O)CC(=O)C2=C1O (centres undefined)
survivor count [1]: 0 of 10 on day 14

COc1cc([C@@H]2c3cc4c(c(O)c3C[C@H]3COC(=O)[C@@H]32)OCO4)cc(OC)c1OC
T/C (dose: 2.88 mg/kg/injection, schedule: Q04DX004 (ip), vehicle: suspension in saline): 142 % of control
survivor count (dose: 22.2 mg/kg/injection, schedule: Q04DX004 (ip), vehicle: suspension in saline): 4 of 10 on day 14

O=C1c2c(O)cccc2-c2nn(CCNCCO)c3ccc(NCCNCCO)c1c23
T/C (dose: 11.0 mg/kg/injection, schedule: Q04DX004 (ip), vehicle: water): 131 % of control
survivor count (dose: 22.0 mg/kg/injection, schedule: Q04DX004 (ip), vehicle: water): 2 of 10 on day 14
survivor count (dose: 44.0 mg/kg/injection, schedule: Q04DX004 (ip), vehicle: water): 0 of 10 on day 14
survivor count (dose: 88.0 mg/kg/injection, schedule: Q04DX004 (ip), vehicle: water): 0 of 10 on day 14

Cc1nc(N)nc(N)c1-c1ccc(Cl)c(Cl)c1
T/C (dose: 20.0 mg/kg/injection, schedule: Q04DX004 (ip), vehicle: saline): 146 % of control [9 of 10 alive on day 14]

N#CC1C(=O)NC(=S)NC1CCc1ccccc1 (centres undefined)
survivor count [5]: 5 of 10 on day 14
survivor count (dose: 800.0 mg/kg/injection, schedule: Q04DX004 (ip), vehicle: Klucel (hydroxypropylcellulose) (HPC)): 0 of 10 on day 14

CC(C)CC(NC(=O)CF)C(=O)O (centres undefined)
survivor count (dose: 25.0 mg/kg/injection, schedule: Q04DX004 (ip), vehicle: saline with Tween-80): 3 of 10 on day 14

CC1=Nc2cc(N)nn2C(=O)C1
survivor count [6]: 7 of 10 on day 14
survivor count [3]: 8 of 10 on day 14
survivor count [4]: 8 of 10 on day 14

COc1ccc2[nH]c3ccc4cc[n+](CCN5CCC(C6CCN(CC[n+]7ccc8ccc9[nH]c%10ccc(OC)cc%10c9c8c7)CC6)CC5)cc4c3c2c1
T/C (dose: 4.0 mg/kg/injection, schedule: Q04DX004 (ip), vehicle: water): 134 % of control
T/C (dose: 8.0 mg/kg/injection, schedule: Q04DX004 (ip), vehicle: water): 148 % of control
survivor count (dose: 64.0 mg/kg/injection, schedule: Q04DX004 (ip), vehicle: water): 6 of 10 on day 14

O=C1C2CC=CCC2C(=O)N1SC(Cl)(Cl)Cl (centres undefined)
survivor count (dose: 50.0 mg/kg/injection, schedule: Q04DX004 (ip), vehicle: saline with Tween-80): 5 of 10 on day 14

Cc1ccc(C2=CSC3=NCCN23)cc1Cl
T/C (dose: 1.5 mg/kg/injection, schedule: Q04DX004 (ip), vehicle: saline): 126 % of control
T/C (dose: 12.5 mg/kg/injection, schedule: Q04DX004 (ip), vehicle: saline): 144 % of control
survivor count (dose: 100.0 mg/kg/injection, schedule: Q04DX004 (ip), vehicle: saline): 0 of 10 on day 14
survivor count (dose: 200.0 mg/kg/injection, schedule: Q04DX004 (ip), vehicle: saline): 0 of 10 on day 14

Cn1c2ccccc2c2ccc3c(c21)C(=O)C=CC3=O
survivor count [2]: 2 of 10 on day 14
survivor count (dose: 200.0 mg/kg/injection, schedule: Q04DX004 (ip), vehicle: Klucel (hydroxypropylcellulose) (HPC)): 0 of 10 on day 14
survivor count [5]: 0 of 10 on day 14

Nc1ccc(S(=O)(=O)Nc2cnc3c(Cl)cccc3n2)cc1
survivor count (dose: 800.0 mg/kg/injection, schedule: Q04DX004 (ip), vehicle: DMSO): 0 of 10 on day 14
survivor count (dose: 1200.0 mg/kg/injection, schedule: Q04DX004 (ip), vehicle: DMSO): 0 of 10 on day 14

NC(Cc1ccc[se]1)C(=O)O (centres undefined)
survivor count (dose: 100.0 mg/kg/injection, schedule: Q04DX004 (ip), vehicle: saline with Tween-80): 0 of 5 on day 14
survivor count [6]: 0 of 4 on day 14

COc1ccc2c(c1)-c1nn(CCCN(C)C)c3ccc([N+](=O)[O-])c(c13)N2
T/C (dose: 6.25 mg/kg/injection, schedule: Q04DX004 (ip), vehicle: water): 135 % of control
T/C (dose: 12.5 mg/kg/injection, schedule: Q04DX004 (ip), vehicle: water): 135 % of control
T/C (dose: 25.0 mg/kg/injection, schedule: Q04DX004 (ip), vehicle: water): 143 and 147 % of control
survivor count (dose: 100.0 mg/kg/injection, schedule: Q04DX004 (ip), vehicle: water): 0 of 10 on day 14

COc1ccc(C[C@H](N)C(=O)NC2C(CO)OC(n3cnc4c(N(C)C)ncnc43)C2O)cc1 (some centres undefined)
survivor count (dose: 800.0 mg/kg/injection, schedule: Q04DX004 (ip), vehicle: saline): 0 of 10 on day 14

C=C(Cl)C(=NC(C)(C)C)Nc1ccccc1C
T/C (dose: 12.5 mg/kg/injection, schedule: Q04DX004 (ip), vehicle: Klucel (hydroxypropylcellulose) (HPC)): 137 % of control
survivor count [1]: 0 of 10 on day 14
survivor count [2]: 0 of 10 on day 14

CC1[C@@H]2CC=C3[C@H]4CCC5Cc6nc7c(nc6C[C@@]5(C)C4CC(=O)[C@]32CO[C@]12OC(C)(C)CC2O)CC1CC[C@@H]2C3=C[C@H]4O[C@@]5(O[C@@](C)(CO)C[C@@H]5O)C(C)[C@@]4(O)[C@]3(C)[C@@H](O)CC2[C@]1(C)C7 (some centres undefined)
survivor count (dose: 200.0 micrograms/kg/injection, schedule: Q04DX004 (ip), vehicle: saline + alcohol): 6 of 10 on day 14
survivor count (dose: 400.0 micrograms/kg/injection, schedule: Q04DX004 (ip), vehicle: saline + alcohol): 3 of 10 on day 14
survivor count (dose: 800.0 micrograms/kg/injection, schedule: Q04DX004 (ip), vehicle: saline + alcohol): 2 of 10 on day 14
